Test results from patent publication US7811551B2 (GE Healthcare AS, priority 2003, dated 2010).

Experiment: general procedure: Fmoc solid-phase peptide synthesis; Rink Amide AM resin; HBTU
Settings: whole synthesis, scale 0.05 mmol

In the case of “Cl—CH2CO-Lys-cyclo[Cys(CH2)-Arg-Gly-Asp-Cys]-Phe-Cys-NH2”, the crude mass is reported as 27 mg.
